Measured values as given in doi:10.1101/2023.06.21.545689.
These are yes or no findings as the source states them, for the method shown. Some entries that bind do so weakly or less than the wild type. Blank lines part the entries; values can stand above or below the binder they belong to.

Assays:
[1] = biological target: T1, BLADE-ON-PETIOLE1 (BOP1) (Arabidopsis thaliana) (UniProt Q9M1I7); experiment: two-hybrid
T1 sequence: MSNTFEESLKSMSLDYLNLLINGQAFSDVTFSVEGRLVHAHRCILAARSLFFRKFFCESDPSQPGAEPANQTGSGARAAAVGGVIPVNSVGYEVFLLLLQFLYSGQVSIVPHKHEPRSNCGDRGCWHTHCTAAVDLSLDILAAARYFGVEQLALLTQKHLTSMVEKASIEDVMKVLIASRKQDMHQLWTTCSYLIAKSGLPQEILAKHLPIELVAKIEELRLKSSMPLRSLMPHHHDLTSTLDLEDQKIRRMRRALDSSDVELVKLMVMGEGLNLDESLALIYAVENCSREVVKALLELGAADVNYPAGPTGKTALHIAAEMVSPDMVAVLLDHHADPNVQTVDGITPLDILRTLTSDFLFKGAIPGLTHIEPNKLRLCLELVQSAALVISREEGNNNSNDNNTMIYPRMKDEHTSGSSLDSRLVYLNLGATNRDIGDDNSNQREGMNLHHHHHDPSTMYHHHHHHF

[2] = biological target: T2, BLADE-ON-PETIOLE2 (BOP2) (Arabidopsis thaliana) (UniProt Q9ZVC2); experiment: two-hybrid
T2 sequence: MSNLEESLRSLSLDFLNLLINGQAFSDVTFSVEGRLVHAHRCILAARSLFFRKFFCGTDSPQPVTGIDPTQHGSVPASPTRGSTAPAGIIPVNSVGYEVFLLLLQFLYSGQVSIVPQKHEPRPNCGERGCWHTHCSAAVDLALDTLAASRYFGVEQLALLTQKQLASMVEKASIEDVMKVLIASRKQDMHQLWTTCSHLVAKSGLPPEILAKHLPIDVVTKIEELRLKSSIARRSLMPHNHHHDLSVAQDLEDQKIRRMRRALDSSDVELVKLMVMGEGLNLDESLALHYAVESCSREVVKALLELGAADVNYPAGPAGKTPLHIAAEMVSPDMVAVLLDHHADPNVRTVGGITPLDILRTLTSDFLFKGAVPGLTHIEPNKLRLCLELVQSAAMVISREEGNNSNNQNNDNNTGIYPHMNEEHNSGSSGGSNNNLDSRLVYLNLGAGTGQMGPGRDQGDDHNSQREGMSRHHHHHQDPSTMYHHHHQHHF

binding [1]: binds
binding [2]: binds
B1: LIGHT-… SHORT HYPOCOTYLS 4 (LSH4) (protein, UniProt Q9LW68 1-195)
chain: MDHIIGFMGTTNMSHNTNLMIAAAATTTTTSSSSSSSSGGSGTNQLSRYENQKRRDWNTFGQYLRNHRPPLSLSRCSGAHVLEFLRYLDQFGKTKVHTHLCPFFGHPNPPAPCACPLRQAWGSLDALIGRLRAAFEENGGSPETNPFGARAVRLYLREVRDSQAKARGISYEKKKRKRPPPPLPPAQPAISSSPN

binding [1]: binds
binding [2]: binds
B2: LIGHT-… SHORT HYPOCOTYLS 1 (LSH1) (protein, UniProt Q6NNI3 1-190)
chain: MDLISHQPNKNPNSSTQLTPPSSSRYENQKRRDWNTFCQYLRNHRPPLSLPSCSGAHVLEFLRYLDQFGKTKVHHQNCAFFGLPNPPAPCPCPLRQAWGSLDALIGRLRAAYEENGGPPEANPFGSRAVRLFLREVRDFQAKARGVSYEKKRKRVNRQKPQTQPPLQLQQQQQQPQQGQSMMANYSGATV

binding [1]: binds
binding [2]: binds
B3: LIGHT-… SHORT HYPOCOTYLS 3 (LSH3) (protein, UniProt O82268 1-219)
chain: MDMIPQLMEGSSAYGGVTNLNIISNNSSSVTGATGGEATQPLSSSSSPSANSSRYENQKRRDWNTFGQYLRNHRPPLSLSRCSGAHVLEFLRYLDQFGKTKVHTNICHFYGHPNPPAPCPCPLRQAWGSLDALIGRLRAAFEENGGKPETNPFGARAVRLYLREVRDMQSKARGVSYEKKKRKRPLPSSSTSSSSAVASHQQFQMLPGTSSTTQLKFEK
